Assay results reported in PMC4742622.
Results are given in words; binding and its absence hold for the method and conditions named. Binding seen in cells or lysates may run through a third protein.

The chains behind the UniProt entries cited, without tags or fusion partners. Where a name states a change or a piece, a line headed by the entry shows the natural chain unless it says otherwise.
UniProt P40763: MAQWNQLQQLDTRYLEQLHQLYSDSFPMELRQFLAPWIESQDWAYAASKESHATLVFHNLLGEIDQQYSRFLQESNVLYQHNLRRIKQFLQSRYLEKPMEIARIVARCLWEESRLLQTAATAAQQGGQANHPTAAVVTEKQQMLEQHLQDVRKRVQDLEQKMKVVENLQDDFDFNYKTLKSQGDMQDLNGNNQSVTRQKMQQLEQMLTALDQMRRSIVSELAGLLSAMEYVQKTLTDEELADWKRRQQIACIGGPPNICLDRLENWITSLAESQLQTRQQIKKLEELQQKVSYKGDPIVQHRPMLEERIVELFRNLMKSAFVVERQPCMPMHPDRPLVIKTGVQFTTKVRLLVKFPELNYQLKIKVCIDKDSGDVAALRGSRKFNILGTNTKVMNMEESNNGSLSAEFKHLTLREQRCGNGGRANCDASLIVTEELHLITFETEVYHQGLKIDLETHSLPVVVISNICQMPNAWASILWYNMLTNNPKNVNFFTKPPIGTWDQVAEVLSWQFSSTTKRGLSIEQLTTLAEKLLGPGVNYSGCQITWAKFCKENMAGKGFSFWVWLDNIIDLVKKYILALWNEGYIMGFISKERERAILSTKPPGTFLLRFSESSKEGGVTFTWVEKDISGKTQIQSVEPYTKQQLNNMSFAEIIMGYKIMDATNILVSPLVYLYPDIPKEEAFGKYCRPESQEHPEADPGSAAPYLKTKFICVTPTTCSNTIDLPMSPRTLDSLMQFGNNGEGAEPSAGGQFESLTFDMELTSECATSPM
UniProt Q01196: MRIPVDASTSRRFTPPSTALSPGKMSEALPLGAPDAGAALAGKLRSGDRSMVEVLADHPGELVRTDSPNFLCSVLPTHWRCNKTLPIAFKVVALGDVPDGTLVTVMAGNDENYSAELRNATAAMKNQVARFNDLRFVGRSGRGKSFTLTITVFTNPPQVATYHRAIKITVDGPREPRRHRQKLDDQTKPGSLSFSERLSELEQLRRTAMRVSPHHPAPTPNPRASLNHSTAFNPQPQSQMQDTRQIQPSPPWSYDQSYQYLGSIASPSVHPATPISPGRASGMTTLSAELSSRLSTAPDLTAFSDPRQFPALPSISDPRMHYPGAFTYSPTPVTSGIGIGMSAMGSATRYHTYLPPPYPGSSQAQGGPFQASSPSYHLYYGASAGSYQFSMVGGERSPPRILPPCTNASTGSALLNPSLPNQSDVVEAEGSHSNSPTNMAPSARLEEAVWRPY

Target: GFP-tagged FLAGHA-STAT3 (UniProt P40763)
Experiment: co-IP; GFP beads on lysates of cells overexpressing the constructs ('GFP-pulldown assay'), western blot; HEK293T stated for Figure 5a and 5b, cells not stated for 5e, 5f, 5h

binding: no binding
Substance: RUNX1 with deleted Runt domain (RUNX1^ΔRD) (from UniProt Q01196)
